Consider two substances from publication PMC3718817 (2013).

Chains of the proteins cited; added tags and fusions are not shown. Lines headed by an entry give the natural chain unless they say otherwise; changes in a name come on top.
UniProt P32598: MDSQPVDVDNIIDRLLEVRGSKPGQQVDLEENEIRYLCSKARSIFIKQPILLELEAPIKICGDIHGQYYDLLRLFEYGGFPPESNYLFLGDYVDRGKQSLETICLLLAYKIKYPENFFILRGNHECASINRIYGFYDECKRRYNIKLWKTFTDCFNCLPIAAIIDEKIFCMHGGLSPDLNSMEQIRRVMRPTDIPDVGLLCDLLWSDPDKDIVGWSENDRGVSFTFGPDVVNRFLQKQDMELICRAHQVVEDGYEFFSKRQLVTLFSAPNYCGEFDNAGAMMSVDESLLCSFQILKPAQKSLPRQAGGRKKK
UniProt P36047: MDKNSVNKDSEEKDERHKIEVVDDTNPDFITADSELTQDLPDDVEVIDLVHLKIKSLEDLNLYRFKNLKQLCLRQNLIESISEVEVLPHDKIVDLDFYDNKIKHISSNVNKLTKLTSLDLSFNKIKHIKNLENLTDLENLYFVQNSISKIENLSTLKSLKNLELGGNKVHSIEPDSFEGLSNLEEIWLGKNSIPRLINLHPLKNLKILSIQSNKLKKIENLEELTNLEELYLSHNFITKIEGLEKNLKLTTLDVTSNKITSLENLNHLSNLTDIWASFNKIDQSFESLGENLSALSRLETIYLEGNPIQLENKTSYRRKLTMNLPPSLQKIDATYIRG

No constants are given. Whether binding was seen depends on the method and setting. Binding can be weak; no strength is given.

In the experiment the target is Gal4(1-147)-Glc7 (S. cerevisiae) (UniProt P32598). Briefly: two-hybrid; PJ69-4A with pAS1-GLC7 (Gal4 DNA-binding domain fusion) and Gal4AD-Sds22 fusions; β-galactosidase activity of three independent transformants.

In the case of “Gal4AD-Sds22 Δ81–124 (from UniProt P36047)”, the binding entry was “binds”. For the substance “Gal4AD-Sds22 Δ243–323 (from UniProt P36047)”, the binding result was “binds”.
